We go through 56 molecules from PubChem BioAssay AID2685 (National Center for Advancing Translational Sciences (NCATS), 2010).

The list shows a part of the results. Further columns of the screen follow, without active or inactive calls. Compounds called inactive in the main read-out are mostly missing here. Words in brackets tell the shape of the fitted curve; partial curves, single points and poor fits give uncertain potencies.

The experiment can be described thus: qHTS Assay for Lipid Storage Modulators in Drosophila S3 Cells.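 For cell number change: cells counted by Cell Tracker Red CMTPX staining in the red channel.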 The following applies: BODIPY lipid droplet fluorescence, 18-24 h; for cell number change: measured here: cell count max response, cells fed with added oleic acid. In short, it runs like this:
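Drosophila S3 cells loaded with oleic acid (400 uM, as added) and compounds at several concentrations; lipid droplets imaged by 488-nm laser-scanning cytometry, 500–530 nm intensity and object ratio to cell channel. Percent activity normalized to 20 uM Triacsin C.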
(In qHTS, concentration-response curves come from the screen itself.)

Setting [1] is: measured here: lipid fluorescence (Fed channel) AC50, cells fed with added oleic acid.
The mark [2] stands for this setting: measured here: cell number channel AC50, cells fed with added oleic acid.

As usually defined, the AC50 is the concentration giving half of the maximal activity seen. The low end stands for activity at low concentration, the high end for activity only at high concentration. With `COc1cc(OC)c(OC)cc1CN1CCN(C(=O)Cc2ccccc2)CC1`, the cell number change was found to be 2.64%. In addition, the AC50 under setting [1] was 3.66 µM [rising, full curve].
Consider `Cc1cc(C)cc(NC2=NCCCS2)c1`, for which the cell number change stood at 25.1%. Also, the AC50 under setting [1] was 29.1 µM [rising, single point].
Turning to `Cc1ccc(C2NC(=S)NC(c3ccc(C)cc3)C23C(=O)NC(=O)NC3=O)cc1` (centres undefined), the cell number change was -1.29%. Moreover, the AC50 under setting [1] was 18.4 µM [rising, single point].
Turning to `O=C1CN(O)C(c2ccccc2Cl)=c2cc(Br)ccc2=N1`, the cell number change was 28.3%.
`C[N+]1(C)C2CCC1CC(OC(=O)c1c[nH]c3ccccc13)C2` (centres undefined): the cell number change is -43.1%. Under setting [2], the AC50 was 0.259 µM [falling, full curve, poor fit]. The AC50 under setting [1] is 4.11 µM [falling, partial curve].
As to `CN(C)c1ccc(C(=O)c2ccc(N(C)C)cc2)cc1`, the cell number change was -30.2%. Further, the concentration at half-maximal activity (AC50) under setting [2] was 18.4 µM [falling, partial curve, poor fit].
As for `CCOC(=O)C1=C(N)Oc2cc(C)oc(=O)c2C12C(=O)N1c3c(cccc32)C(C)CC1(C)C` (centres undefined), the cell number change was -0.574%. For the same molecule, the AC50 under setting [1] was 29.1 µM [falling, single point].
Consider `CC(=O)Nc1cc(C(=O)N2CCC3(CC2)OCCO3)ccc1Sc1ccc(F)cc1`, for which the cell number change turned out to be 18.2%.
In the case of `Clc1ccc(C[n+]2c(-c3ccccc3)cc(-c3ccccc3)cc2-c2ccccc2)cc1`, the cell number change was -86.9%. Moreover, under setting [2], the AC50 was 5.8 µM [falling, partial curve]. Moreover, the AC50 under setting [1] was 4.11 µM [falling, partial curve].
In the case of `O=C1C2(Cl)C3(Cl)C4(Cl)C(Cl)(Cl)C5(Cl)C3(Cl)C1(Cl)C5(Cl)C24Cl` (centres undefined), the cell number change was -87.6%. Also, the AC50 under setting [2] is 4.61 µM [falling, single point].
As for `CN(C(=O)Oc1cccc2cccnc12)c1ccccc1`, the AC50 under setting [1] is 0.58 µM [rising, single point].
Consider `N#C/C=C/C#N`, for which the cell number change was -36.7%. Under setting [2], the AC50 is 29.1 µM [falling, single point]. In addition, under setting [1], the AC50 was 18.4 µM [rising, single point].
With `CCOc1c(Cl)cc(CNCCc2c[nH]c3ccccc23)cc1OC`, the cell number change is -33.3%. The AC50 under setting [2] is 25.9 µM [falling, single point]. Besides, the AC50 under setting [1] was 20.6 µM [falling, single point].
With `CC(Cc1cccs1)NCc1ccc(Cl)cc1` (centres undefined), the cell number change turned out to be 48.6%. Moreover, under setting [2], the AC50 was 29.1 µM [rising, single point]. For the same molecule, the half-maximal activity concentration (AC50) under setting [1] is 29.1 µM [rising, single point].
Take `Cc1ccc(N2CCN(CCc3ccccc3)CC2)cc1`: the cell number change was -41.6%. In addition, the AC50 under setting [2] is 29.1 µM [falling, single point]. Besides, the AC50 under setting [1] was 0.116 µM [falling, full curve, poor fit].
Take `O=C1NC(=O)N(Cc2ccccc2)C(=O)/C1=C\C=C\c1ccco1`: the cell number change was -36.8%. Moreover, the AC50 under setting [2] is 23.1 µM [falling, single point].
Regarding `CCN(CC)c1ccc(N=Cc2c(O)n(CCC3=CCCCC3)c(=O)[nH]c2=O)cc1`, the cell number change stood at 10.5%. Further, the AC50 under setting [1] was 0.517 µM [rising, full curve].
With `COC(=O)c1ccc(N2CCN(C)CC2)c([N+](=O)[O-])c1`, the cell number change came out at 17.5%.
Consider `COC(=O)C1=C(c2ccc(OCc3ccccc3)cc2)C[C@@H]2CC[C@H]1N2C(=O)NCc1cccc(C(F)(F)F)c1`, for which the cell number change is -7.18%. Moreover, the AC50 under setting [1] was 0.092 µM [falling, full curve, poor fit].
On to `O=C(O)C(Cc1cnc[nH]1)NS(=O)(=O)c1ccc(Br)cc1` (centres undefined), for which the cell number change was 15%. Further, under setting [1], the AC50 was 9.2 µM [falling, single point].
As to `NC(N)=N/N=C/c1cn(-c2ccccc2)nc1-c1cccs1`, the cell number change is -71.5%. Besides, the AC50 under setting [2] was 14.6 µM [falling, partial curve]. In addition, under setting [1], the AC50 was 18.4 µM [falling, partial curve].
As for `CCC/C=N/O`, the cell number change was -3.62%.
Regarding `CN1CCCN(c2ccc([N+](=O)[O-])nc2)CC1`, the cell number change came out at 9.68%. In addition, the AC50 under setting [1] was 0.58 µM [rising, single point].
As for `COc1ccc(CN2CCN(C(=O)COc3cccc(C)c3)CC2)c(OC)c1`, the cell number change came to 24.7%. Under setting [1], the half-maximal activity concentration (AC50) is 2.59 µM [rising, partial curve].
Take `CCCCn1c(O)c(C(C)=Nc2ccc(C(=O)O)cc2)c(=O)[nH]c1=O`: the cell number change was -10.9%. The AC50 under setting [1] was 2.31 µM [falling, partial curve, poor fit].
With `Cc1ccc(C(=O)c2cc(Br)ccc2N)cc1`, the cell number change is -30.5%.
Consider `N#CC(C#N)=NNc1ccc(-n2ccc(C(F)(F)F)n2)cc1`, for which the cell number change is -13.6%. Further, the AC50 under setting [2] was 0.231 µM [falling, partial curve]. Further, under setting [1], the AC50 is 7.31 µM [falling, partial curve].
In the case of `O=C1NC(=O)N(c2cccc(Cl)c2)C(=O)/C1=C\c1ccc(Sc2nc3ccccc3[nH]2)o1`, the cell number change is -96%. Under setting [2], the AC50 is 29.1 µM [falling, single point].
For `O=C(Nc1cccc(OC(=O)N2CCCCC2)c1)N1CCOCC1`, the cell number change amounted to 48.1%. In addition, under setting [2], the AC50 was 0.231 µM [rising, full curve, poor fit].
`CC(=O)c1c(O)n(C)c(=S)n(-c2ccccc2)c1=O`: the cell number change is -6.14%. Besides, under setting [1], the AC50 is 6.51 µM [falling, single point].
`CCCNC(=O)Cn1cnc2sc(C(=O)N3CCC4(CC3)OCCO4)c(C)c2c1=O`: the cell number change is -13%. Further, the AC50 under setting [1] is 2.91 µM [rising, partial curve, poor fit].
As for `COC(=O)C1=C(c2ccc(C(C)=O)cc2)C[C@@H]2CC[C@H]1N2C(=O)NCCO`, the cell number change is 21.7%. Under setting [2], the AC50 was 1.16 µM [falling, single point]. Moreover, under setting [1], the half-maximal activity concentration (AC50) was 0.116 µM [rising, single point].
For `COCCOC(=O)c1c(N)n(Cc2ccco2)c2nc3ccccc3nc12`, the cell number change was -54.5%. Besides, the AC50 under setting [2] was 32.6 µM [falling, partial curve]. Moreover, the AC50 under setting [1] is 14.6 µM [falling, partial curve, poor fit].
Regarding `C=CCn1c(O)c(C=NCCCOc2ccc(CC)cc2)c(=O)[nH]c1=S`, the cell number change is -45.6%. Further, under setting [2], the AC50 was 14.6 µM [falling, partial curve]. Moreover, the AC50 under setting [1] was 18.4 µM [falling, partial curve].
In the case of `CC(=O)Nc1ccccc1C(=O)OCc1ccc(C(=O)c2ccccc2)cc1`, the cell number change is -12.4%. Moreover, under setting [1], the AC50 is 18.4 µM [falling, single point].
With `O=C(CCCN1CCC(n2c(=O)[nH]c3ccccc32)CC1)c1ccc(F)cc1`, the cell number change came out at 28%. The AC50 under setting [1] is 0.92 µM [rising, full curve, poor fit].
Turning to `COC(=O)C1=C(c2ccc(OC(F)(F)F)cc2)C[C@@H]2CC[C@H]1N2C(=O)NC1CC1`, the cell number change was found to be 4.21%. Further, under setting [1], the half-maximal activity concentration (AC50) is 0.00411 µM [rising, full curve, poor fit].
`C#CC1(OC(=O)c2ccccc2)CC(C)N(C)CC1C` (centres undefined): the cell number change came out at 0.265%. The AC50 under setting [1] is 25.9 µM [rising, single point].
For the molecule `COC(=NC1CCCCC1)C(O)c1c[nH]c2ccccc12` (centres undefined), the cell number change was -4.94%. Moreover, under setting [1], the half-maximal activity concentration (AC50) is 0.259 µM [falling, full curve].
With `COC(=O)CC1(CC(=O)OC)C(=O)NC(=O)NC1=O`, the cell number change is 2.42%.
Regarding `CCN1C(=O)C(=Cc2ccc(C)s2)C(=O)N(CC)C1=S`, the cell number change is -2.41%. Further, the AC50 under setting [1] is 0.651 µM [falling, full curve, poor fit].
For `COc1ccc(-c2nn(CCC#N)cc2C(=O)Nc2ccc(C(C)=O)cc2)cc1[N+](=O)[O-]`, the cell number change is -22.6%. The half-maximal activity concentration (AC50) under setting [1] was 0.58 µM [rising, single point].
For the molecule `CC(=O)Nc1ccc2c(c1)CC1(C(=O)N(C)C(=O)N(C)C1=O)C1CCCN21` (centres undefined), the AC50 under setting [1] is 6.51 µM [falling, single point].
As for `CC1CCN(S(=O)(=O)c2ccc(NN=C(C#N)C#N)cc2)CC1`, the cell number change is -6.09%. For the same molecule, the AC50 under setting [1] was 0.00517 µM [rising, full curve, poor fit].
Turning to `Cc1ccc(Cn2nnnc2CN2CCC(n3nnc4ccccc43)CC2)cc1`, the cell number change was 29.6%. The concentration at half-maximal activity (AC50) under setting [1] is 2.31 µM [rising, partial curve, poor fit].
On to `CCN(CC)c1ccc(CN2CC=C(c3ccc(F)cc3)CC2)cc1`, for which the cell number change is -56.9%. Also, the half-maximal activity concentration (AC50) under setting [2] is 29.1 µM [falling, single point]. Besides, the AC50 under setting [1] was 29.1 µM [falling, single point].
Regarding `Clc1ccc(COC(Cn2ccnc2)c2ccc(Cl)cc2Cl)c(Cl)c1` (centres undefined), the cell number change is -81%. Moreover, the AC50 under setting [2] was 16.4 µM [falling, single point]. Also, under setting [1], the AC50 is 18.4 µM [falling, single point].
Consider `COCCOC(=O)C1=C(C)OC(N)=C(C(=O)OC)C12C(=O)Nc1ccccc12` (centres undefined), for which the cell number change came to 7.11%.
Regarding `O=C1CSC2N1CCNC21CCCCC1` (centres undefined), the cell number change is 1.92%. Also, the AC50 under setting [1] is 1.46 µM [rising, full curve, poor fit].
On to `Cc1cc(/C=C2/C(=O)NC(=O)N(C)C2=O)c(C)n1-c1ccccc1`, for which the cell number change is 45.6%. Under setting [2], the AC50 was 29.1 µM [rising, single point]. Besides, under setting [1], the AC50 was 7.31 µM [falling, single point].
Regarding `CCN(CC)P(=O)(NC(=O)C(Cl)(Cl)Cl)N(CC)CC.[Cl-].[Cl-].[Cl-].[Nd+3]`, the cell number change is -95.1%. The AC50 under setting [2] was 20.6 µM [falling, partial curve]. The AC50 under setting [1] is 0.116 µM [falling, full curve, poor fit].
Consider `O=c1[nH]c(=O)n(CCc2ccccc2)c(O)c1C=NCCN1CCNCC1`, for which the cell number change was determined as 9.26%. Moreover, under setting [2], the AC50 is 5.8 µM [falling, single point].
Turning to `CC(=O)OC1(c2ccccc2)CC(C(C)(C)C)CN(C(C)(C)C)C1` (centres undefined), the cell number change was -4.82%. Also, the half-maximal activity concentration (AC50) under setting [2] is 6.51 µM [falling, single point]. Besides, the AC50 under setting [1] was 32.6 µM [falling, single point].
As to `CCOc1cc(-c2nc3c(C)cccn3c2NCC2CCCO2)ccc1O` (centres undefined), the cell number change was found to be 5.02%.
Regarding `COC(=O)C1=C(c2ccc(F)cc2OCc2ccccc2)C[C@@H]2CC[C@H]1N2C(=O)NCc1ccc([N+](=O)[O-])cc1`, the cell number change was -10.7%. Under setting [1], the AC50 was 1.64 µM [rising, single point].
In the case of `CC(C)c1ccc(NC(=O)CSc2nnc(OC(=O)N(C)C)n2C2CC2)cc1`, the cell number change is -74.8%. Also, the AC50 under setting [2] is 29.1 µM [falling, single point]. Moreover, under setting [1], the AC50 is 29.1 µM [rising, single point].
